Assay results as given in article PMC9818470.
No constants are given. Whether binding was seen depends on the method and setting. Binding seen in cells or lysates may run through a third protein.

The chains behind the UniProt entries cited, without tags or fusion partners. Where a name states a change or a piece, a line headed by the entry shows the natural chain unless it says otherwise.
UniProt Q8N163: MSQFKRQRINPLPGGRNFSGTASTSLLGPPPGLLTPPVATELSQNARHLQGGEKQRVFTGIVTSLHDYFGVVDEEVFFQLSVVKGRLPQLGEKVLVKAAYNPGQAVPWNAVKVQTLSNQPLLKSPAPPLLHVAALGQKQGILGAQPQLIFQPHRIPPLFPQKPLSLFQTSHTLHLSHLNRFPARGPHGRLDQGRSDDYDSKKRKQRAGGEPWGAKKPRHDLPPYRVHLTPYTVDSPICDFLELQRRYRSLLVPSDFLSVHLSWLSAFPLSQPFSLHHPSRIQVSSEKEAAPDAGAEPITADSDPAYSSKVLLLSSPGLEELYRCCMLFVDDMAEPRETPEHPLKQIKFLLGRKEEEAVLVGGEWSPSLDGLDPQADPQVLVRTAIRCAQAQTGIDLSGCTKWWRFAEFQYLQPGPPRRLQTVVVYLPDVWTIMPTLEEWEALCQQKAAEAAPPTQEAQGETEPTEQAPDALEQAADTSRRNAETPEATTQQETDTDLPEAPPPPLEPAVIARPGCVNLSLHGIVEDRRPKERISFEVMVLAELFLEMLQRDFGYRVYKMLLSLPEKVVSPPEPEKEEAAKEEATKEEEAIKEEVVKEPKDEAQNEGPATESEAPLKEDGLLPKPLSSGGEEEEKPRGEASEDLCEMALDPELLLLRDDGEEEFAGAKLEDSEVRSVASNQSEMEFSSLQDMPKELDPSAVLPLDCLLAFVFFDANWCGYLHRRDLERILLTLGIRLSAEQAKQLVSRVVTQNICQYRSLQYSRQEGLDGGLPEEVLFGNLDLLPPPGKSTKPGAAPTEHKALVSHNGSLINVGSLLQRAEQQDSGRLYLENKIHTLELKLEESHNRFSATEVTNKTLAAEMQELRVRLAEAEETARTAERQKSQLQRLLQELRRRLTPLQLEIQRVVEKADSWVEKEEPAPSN
UniProt P54132: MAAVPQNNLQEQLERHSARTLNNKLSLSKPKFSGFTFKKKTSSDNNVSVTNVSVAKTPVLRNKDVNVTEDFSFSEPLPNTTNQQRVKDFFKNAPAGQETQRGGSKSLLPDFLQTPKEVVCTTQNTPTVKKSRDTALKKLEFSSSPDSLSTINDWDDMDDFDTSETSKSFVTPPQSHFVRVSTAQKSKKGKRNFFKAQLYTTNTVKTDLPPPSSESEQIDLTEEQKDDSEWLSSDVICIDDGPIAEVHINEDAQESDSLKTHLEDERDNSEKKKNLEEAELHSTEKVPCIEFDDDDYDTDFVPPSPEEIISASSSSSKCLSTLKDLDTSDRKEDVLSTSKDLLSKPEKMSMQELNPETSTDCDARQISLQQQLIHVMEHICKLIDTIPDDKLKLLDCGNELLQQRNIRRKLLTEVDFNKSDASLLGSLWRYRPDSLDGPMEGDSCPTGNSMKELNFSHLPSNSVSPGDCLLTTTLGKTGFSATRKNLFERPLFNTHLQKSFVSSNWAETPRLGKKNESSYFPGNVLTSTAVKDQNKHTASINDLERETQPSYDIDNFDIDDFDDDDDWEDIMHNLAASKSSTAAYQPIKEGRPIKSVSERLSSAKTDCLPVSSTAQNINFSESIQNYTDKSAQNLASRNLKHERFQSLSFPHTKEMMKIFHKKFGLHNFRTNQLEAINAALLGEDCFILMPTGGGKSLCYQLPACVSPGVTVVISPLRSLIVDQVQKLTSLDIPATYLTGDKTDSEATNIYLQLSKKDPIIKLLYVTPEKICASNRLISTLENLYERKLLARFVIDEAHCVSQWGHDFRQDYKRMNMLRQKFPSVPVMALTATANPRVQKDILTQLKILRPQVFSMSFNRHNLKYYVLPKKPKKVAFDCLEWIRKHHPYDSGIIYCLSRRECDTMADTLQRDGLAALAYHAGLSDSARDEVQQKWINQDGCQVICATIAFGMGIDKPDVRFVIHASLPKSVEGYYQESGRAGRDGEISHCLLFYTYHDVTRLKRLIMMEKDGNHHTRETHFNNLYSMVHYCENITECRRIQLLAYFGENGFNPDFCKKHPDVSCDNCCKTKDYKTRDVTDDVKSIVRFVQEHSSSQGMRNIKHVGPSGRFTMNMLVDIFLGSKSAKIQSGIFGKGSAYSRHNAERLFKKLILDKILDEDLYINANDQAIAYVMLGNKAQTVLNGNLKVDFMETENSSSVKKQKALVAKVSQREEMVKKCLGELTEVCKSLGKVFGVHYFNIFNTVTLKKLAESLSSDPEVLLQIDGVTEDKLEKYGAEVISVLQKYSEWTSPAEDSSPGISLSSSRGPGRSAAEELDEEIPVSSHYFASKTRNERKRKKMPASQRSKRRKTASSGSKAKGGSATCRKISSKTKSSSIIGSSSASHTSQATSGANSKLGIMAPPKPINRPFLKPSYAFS

Target: DBC1 ΔNT (UniProt Q8N163)
Assay: co-IP; co-IP of full-length or truncated DBC1 with BLM from whole cell lysates, Western blot

binding: no binding
Substance: BLM (Bloom syndrome protein) (from UniProt P54132 1-1417)
